In publication PMC4887895:
Results are given in words; binding and its absence hold for the method and conditions named. In cells and extracts the contact can be indirect. Binding calls can cover weak binding; strength is not graded here.

Target: VN155-UNC-76 (C. elegans)
Assay: split reporter; Venus BiFC of VC155-UNC-64 and VN155-UNC-76 in neurons of live transgenic C. elegans (wild type, par-1 and unc-18 mutants), spinning disk confocal imaging

binding: binds
B1: VC155-UNC-64 (protein, UniProt O16000 1-291)
chain: MTKDRLSALKAAQSEDEQDDDMHMDTGNAQYMEEFFEQVEEIRGSVDIIANNVEEVKKKHSAILSNPVNDQKTKEELDELMAVIKRAANKVRGKLKLIENAIDHDEQGAGNADLRIRKTQHSTLSRRFVEVMTDYNKTQTDYRERCKGRIQRQLDIAGKQVGDEDLEEMIESGNPGVFTQGIITDTQQAKQTLADIEARHNDIMKLESSIRELHDMFMDMAMLVESQGEMVDRIEYNVEHAKEFVDRAVADTKKAVQYQSKARRKKICILVTGVILITGLIIFILFYAKVL
